Measured values taken from article PMC5928155, “Sak4 of Phage HK620 Is a RecA Remote Homolog With Single-Strand Annealing Activity Stimulated by Its Cognate SSB Protein” (Frontiers in Microbiology, 2018).
A negative result means that nothing was seen under these conditions. For some assays here: Tags and fusion partners may be left off the protein sequences shown.

Tests used:
Test in all cases: EMSA
[1] = system: Sak4 (HkaL) + SSB HK620 (HkaK); conditions: no ATP, Sak4 does not shift SSB-ssDNA complexes (SSB itself bound); EMSA: 13 mM Tris-HCl pH 7.5, 5 mM MgCl2, 169 mM NaCl, 0.1 mg/mL BSA, 1 mM DTT, +/- 1 mM ATP, 10 nM DNA, 15 min at 30 C; 5% native PAGE in 1X TAE; recombinant protein; label: 5'-Cy5; single-stranded DNA
[2] = target: T1, Sak4 (HkaL) (Enterobacteria phage HK620) (UniProt Q9AZ29); conditions: EMSA: 13 mM Tris-HCl pH 7.5, 5 mM MgCl2, 169 mM NaCl, 0.1 mg/mL BSA, 1 mM DTT, +/- 1 mM ATP, 10 nM DNA, 15 min at 30 C, 5% native PAGE in 1X TAE, recombinant protein, residues 1-226, label: 5'-Cy5, single-stranded DNA
T1 sequence (looked up): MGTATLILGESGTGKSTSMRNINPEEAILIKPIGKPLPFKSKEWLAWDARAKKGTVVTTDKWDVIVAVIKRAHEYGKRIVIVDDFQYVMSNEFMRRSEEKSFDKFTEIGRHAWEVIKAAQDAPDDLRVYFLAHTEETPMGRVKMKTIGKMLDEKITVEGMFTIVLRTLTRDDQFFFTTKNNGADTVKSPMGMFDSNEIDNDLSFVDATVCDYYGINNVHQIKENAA

[3] = system: Sak4 (HkaL) + SSB HK620 delta6; conditions: Sak4 does not shift SSBdelta6-ssDNA complexes (SSBdelta6 itself bound), EMSA: 13 mM Tris-HCl pH 7.5, 5 mM MgCl2, 169 mM NaCl, 0.1 mg/mL BSA, 1 mM DTT, 10 nM DNA, 15 min at 30 C, 5% native PAGE in 1X TAE, recombinant protein

Measured: binding result

ACCTGAATCGCCAGCGGCATCAGCACCTTGTCGCCTTACGTATACTATTTGCCCATGGTGAAAACGGGGGCGAAGAAGTTG [GO47]
no binding: [1] | [2]; ADP | [2]; no ATP | [3]; 1 mM ATP, label: 5'-Cy5, single-stranded DNA | [3]; no ATP, +/- 1 mM ATP, label: 5'-Cy5, single-stranded DNA
